How the values were obtained:
Type in all cases: cell-based
LNCaP cells = experiment: Cell proliferation assay, LNCaP cells; settings: Homo sapiens, read-out: IC50, inhibition of proliferation
LNCaP-95 cells = experiment: Cell proliferation assay, LNCaP-95 cells
LNCaP-C4-2 cells = experiment: Cell proliferation assay, LNCaP-C4-2 cells; settings: Homo sapiens, LNCaP C4-2, read-out: IC50, inhibition of proliferation
LNCaP-abl cells = experiment: Cell proliferation assay, LNCaP-abl cells

- IC50 (LNCaP cells): 19 µM
- IC50, inhibition of proliferation (LNCaP-95 cells): not reached
- IC50 (LNCaP-C4-2 cells): 18.5 µM
- IC50, inhibition of proliferation (LNCaP-abl cells): not reached
SMILES: CNC(=O)c1ccc(N2C(=S)N(c3ccc(C#N)c(C(F)(F)F)c3)C(=O)C2(C)C)cc1F [enzalutamide]

— article PMC5010535 (Cancer research, 2016)
